Data published in patent US10591497B2, “Immunoassay for synthetic cannabinoids of the adamantyl indazole/indole-3-carboxamide family” (Randox Laboratories Limited, priority 2014, dated 2020).

System: antibody derived from Immunogen of Example 9
Experiment: Competitive immunoassay (ELISA), IC50 derivation and cross-reactivity
Type: binding, sheep
Protocol: All cross-reactivity are measured herein under the experimental conditions of Example 12 and compared to 100% for AKB48.
IgG is extracted from the antisera and immobilised on a 96 well ELISA plate (coated for 2 hours at +37° C. at 10 ug/ml in a Phosphate Buffered Saline pH7.2). Unbound material is removed by washing with Tris Buffered Saline (TBS) containing tween ([…]) over 10 minutes. Standard AKB48 is added at the concentrations quoted in Table 1, followed by detection agent 1 (FIG. 2) at 1/140 k in a dilution buffer. After incubation (60 mins) at +15 to +25° C. to allow a competition reaction to take place, the microtitre plate is washed with TBS containing Tween™ to remove excess reagents. The enzyme substrate […] (125 μl) is added (Kem-en-Tec Cat. No. 4800). After a 20 minute incubation period to allow maximum colour development, the colour reaction is stopped by the addition of sulphuric acid (0.2M, 120 μl). This produces a colour change from blue to yellow, and the absorbances are read at 450 nm. A standard curve is then constructed and the IC50 calculated as the AKB48 concentration which produces 50% inhibition of maximal signal. This process was repeated for synthetic cannabinoid members as stated in Table 2 to assess cross-reactivity.
The cross-reactivity (CR) was calculated using the equation below. All calculations were based upon binding and displacement at the 50% of maximum OD (optical density) binding point. The maximum OD is the signal generated using tracer alone and 50% displacement (inhibition) corresponds to the IC50. […]
The extent of antibody binding to synthetic cannabinoids of various families was assessed (Table 2). For the cross-reactants with IC50 values, standard curves were derived for each analyte (as per AKB48 and Table 1). […] In all cases, the cross-reactivity set out in Table 2 was measured using an antibody derived from the immunogen of Example 9 and Tracer 1 of Example 10.

CCCCCn1cc(C(=O)NC23CC4CC(CC(C4)C2)C3)c2ccccc21 [AKB48, N-(1-adamantyl)-1-pentyl-1H-indole-3-carboxamide]
Average OD (A450) (AKB48 concentration 0.25 ng/ml): 1.470
Average OD (A450) (AKB48 concentration 0.74 ng/ml): 1.159
Average OD (A450) (AKB48 concentration 2.22 ng/ml): 0.835
Average OD (A450) (AKB48 concentration 6.67 ng/ml): 0.434
Average OD (A450) (AKB48 concentration 20.00 ng/ml): 0.206
